Test results as given in patent publication US20220074923A1, “METHODS OF IDENTIFYING PARKIN-MEDIATED MITOPHAGY ACTIVATING AGENTS” (THE GOVERNING COUNCIL OF THE UNIVERSITY OF TORONTO, priority 2018, published 2022).

System: HEK293 GFP Parkin cells
Experiment: High throughput small molecule screen for Parkin recruitment to mitochondria (high content imaging)
Type: cell-based
Conditions: 4 μM, 16 h, then CCCP 2 h, rank out of 480, low rank = activator of Parkin recruitment
Method: 10 uL of 0.1 mg/mL Poly-D-Lys solution was added to 384-well plates for 5 minutes, followed by a PBS wash. Plates were dried for at least 2 hours. 50 μL of 600 000 HEK293 GFP Parkin cell/mL of DMEM was dispensed into each well. After 24 hours incubation to allow the cells to adhere, 200 nL of small molecules (or DMSO in columns 1, 2, 23 and 24) were pinned. Following a 16-hour incubation, 200 nL of 5 mM CCCP were added to all wells except columns 1 and 2, into which 200 nL of DMSO was added. Following 2-hour incubation, cells were fixed with 4% paraformaldehyde (PFA) and stained with 50 μL of 1 μg/mL DAPI solution for 15 minutes. After the final PBS wash, plates were ready for high content microscopy.
Images were acquired on IN Cell Analyzer 6000 (GE Healthcare), equipped with sCMOS camera (2048×2048), and 20x/0.45 NA Plan Fluor objective (Nikon) in open aperture mode using 1×1 binning. Image analysis was performed using Columbus Image Analysis System (PerkinElmer). Nuclei were initially detected in DAPI channel, followed by whole cell segmentation in GFP channel. […] The percentage of cells with mitochondrial GFP-Parkin was determined per well. The molecules were then rank ordered based on z-score, which is calculated using the formula: […]

## O=C1NC(=O)c2c1c(-c1ccccc1)cc1[nH]c3ccc(O)cc3c21 [PD 407824]
  rank in the kinase inhibitor library screen (rank order by z-score): 425/480
